Results as given in PMC2900305.
These are yes or no findings as the source states them, for the method shown. Binding seen in cells or lysates may run through a third protein. Some results given as binding are weak or reduced against the parent protein; the word gives no strength.

Protein sequences, listed by entry. Tags and fused reporters are not part of them.
UniProt Q924A2: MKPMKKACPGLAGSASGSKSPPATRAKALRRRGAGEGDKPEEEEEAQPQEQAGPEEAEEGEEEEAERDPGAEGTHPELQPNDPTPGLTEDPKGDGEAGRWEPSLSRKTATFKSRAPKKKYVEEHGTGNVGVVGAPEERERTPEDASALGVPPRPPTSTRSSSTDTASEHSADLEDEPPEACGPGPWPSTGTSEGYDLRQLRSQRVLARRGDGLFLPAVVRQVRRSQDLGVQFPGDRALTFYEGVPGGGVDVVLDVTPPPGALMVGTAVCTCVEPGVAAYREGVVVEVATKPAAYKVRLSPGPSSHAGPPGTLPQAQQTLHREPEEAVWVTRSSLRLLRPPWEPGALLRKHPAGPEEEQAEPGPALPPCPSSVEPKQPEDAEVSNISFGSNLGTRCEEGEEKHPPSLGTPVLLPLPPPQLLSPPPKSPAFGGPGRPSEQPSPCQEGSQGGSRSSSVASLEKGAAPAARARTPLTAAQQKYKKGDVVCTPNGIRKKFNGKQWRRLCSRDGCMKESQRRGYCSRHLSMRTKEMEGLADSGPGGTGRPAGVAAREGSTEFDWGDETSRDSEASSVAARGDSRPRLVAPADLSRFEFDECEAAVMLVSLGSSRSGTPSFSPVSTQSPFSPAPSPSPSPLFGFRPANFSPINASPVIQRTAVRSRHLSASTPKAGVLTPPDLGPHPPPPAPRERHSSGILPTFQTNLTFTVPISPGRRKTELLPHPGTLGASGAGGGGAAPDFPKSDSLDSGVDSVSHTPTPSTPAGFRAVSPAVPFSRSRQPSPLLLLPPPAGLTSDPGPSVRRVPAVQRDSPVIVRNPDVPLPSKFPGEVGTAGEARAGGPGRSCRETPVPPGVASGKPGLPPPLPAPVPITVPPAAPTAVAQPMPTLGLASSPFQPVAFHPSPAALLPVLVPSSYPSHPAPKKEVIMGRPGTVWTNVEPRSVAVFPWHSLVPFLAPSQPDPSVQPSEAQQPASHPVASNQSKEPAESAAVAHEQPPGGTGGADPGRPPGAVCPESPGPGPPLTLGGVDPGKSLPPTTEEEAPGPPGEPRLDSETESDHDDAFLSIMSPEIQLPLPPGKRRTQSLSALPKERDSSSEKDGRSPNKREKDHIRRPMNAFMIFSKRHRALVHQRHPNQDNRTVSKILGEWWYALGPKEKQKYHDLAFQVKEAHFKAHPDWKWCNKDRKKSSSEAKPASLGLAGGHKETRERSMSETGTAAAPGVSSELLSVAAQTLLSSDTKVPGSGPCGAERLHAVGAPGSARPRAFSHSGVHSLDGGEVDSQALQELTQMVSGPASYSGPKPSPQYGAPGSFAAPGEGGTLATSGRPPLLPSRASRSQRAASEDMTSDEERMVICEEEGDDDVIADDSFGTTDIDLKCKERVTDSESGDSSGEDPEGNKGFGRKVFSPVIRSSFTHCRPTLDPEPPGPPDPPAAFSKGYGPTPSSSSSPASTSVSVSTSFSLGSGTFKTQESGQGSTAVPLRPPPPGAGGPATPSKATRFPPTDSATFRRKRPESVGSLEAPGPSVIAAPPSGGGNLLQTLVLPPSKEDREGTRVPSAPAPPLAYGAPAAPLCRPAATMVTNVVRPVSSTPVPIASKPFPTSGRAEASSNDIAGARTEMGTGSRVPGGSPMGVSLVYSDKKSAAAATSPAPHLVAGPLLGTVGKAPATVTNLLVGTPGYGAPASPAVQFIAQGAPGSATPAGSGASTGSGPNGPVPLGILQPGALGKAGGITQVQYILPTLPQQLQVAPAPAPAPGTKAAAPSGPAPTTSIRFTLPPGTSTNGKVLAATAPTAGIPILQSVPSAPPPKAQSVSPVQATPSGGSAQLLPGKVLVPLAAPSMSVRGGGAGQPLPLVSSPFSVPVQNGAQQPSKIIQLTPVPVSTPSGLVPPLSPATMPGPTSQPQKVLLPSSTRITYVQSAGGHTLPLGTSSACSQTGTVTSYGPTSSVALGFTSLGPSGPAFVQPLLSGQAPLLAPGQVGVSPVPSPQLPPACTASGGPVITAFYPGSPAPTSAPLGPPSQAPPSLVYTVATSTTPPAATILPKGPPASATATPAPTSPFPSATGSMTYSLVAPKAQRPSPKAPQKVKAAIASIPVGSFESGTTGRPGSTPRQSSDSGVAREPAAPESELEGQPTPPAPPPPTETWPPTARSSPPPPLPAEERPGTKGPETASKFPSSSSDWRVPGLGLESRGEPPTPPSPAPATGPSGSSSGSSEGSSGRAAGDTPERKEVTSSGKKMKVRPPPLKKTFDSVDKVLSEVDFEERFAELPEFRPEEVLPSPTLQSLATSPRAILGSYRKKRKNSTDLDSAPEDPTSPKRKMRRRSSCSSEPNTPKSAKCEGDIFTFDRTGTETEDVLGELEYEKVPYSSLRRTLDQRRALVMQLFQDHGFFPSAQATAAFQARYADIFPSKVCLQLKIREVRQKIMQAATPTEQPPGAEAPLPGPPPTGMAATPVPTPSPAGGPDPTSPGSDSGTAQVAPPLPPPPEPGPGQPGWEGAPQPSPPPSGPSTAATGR

Target: Capicua homolog (Cic) (mouse (endogenous in cerebellum)) (UniProt Q924A2)
Assay: co-IP; cerebellar extracts of wild-type, Atxn1-/- and Atxn1-/-; Atxn1L dp/+ mice in TST buffer (10 mM Tris-HCl pH 7.5, 0.9% NaCl, 0.05% Tween 20) diluted in PBS; precipitated overnight at 4°C with polyclonal guinea pig anti-Cic serum on protein A Sepharose (pre-immune serum as control); western blot for Atxn1L

B1: Ataxin-1-Like (protein, UniProt P0C7T6 1-687)
chain: MKPVHERSQECLPPKKRDLPVTSEDMGRTTSCSTNHTPSSDASEWSRGVVVAGQSQTGARVSLGGDGTEAITGLTVDQYGMLYKVAVPPATFSPTGLPSVVNMSPLPPTFNVASSLIQHPGIHYPPVHYAQLPSTSLQFIGSPYSLPYAVPPNFLPSPLLSPSANLATTHLPHFVPYASLLAEEATPPPQAASPAQSFNKSSSATSPPGQLPHHSNTQPLDLAPGRMPIYYQMSRLPAGYTLHETSTAGASPILTPQEGQSALEAAAANGQRQRERNVRRESEALDSASSKGESQGLVPVVECMADGQLFSGSQTPRVEVAAPAHRGTPDTDLEVQRVVGALASQDYRVVAAQRKDEPSPLNLSHHNLDHQGEGRGSARNPTELVEKSQARVFYPQSHQEPVKHRPLPKAMVVANGNLVPTGTDPSLLPVGSEILVASSLDLQARATFPDKEPTPPPVTSSHLPSHFMKGAIIQLATGELKRVEDLQTQDFVRSAEVSGGLKIDSSTVVDIQESQWPGFVMLHFVVGEQQSKVSIEVPPEHPFFVYGQGWSSCSPGRTAQLFSLPCHRLQVGDVCISISLQSLNSNSVSQASCAPPGQLGTPRERPERTVLGPRDLCDSEGKNQPSGEGSRVGEPSQPEPGAQACWPAPSFQRFSMQGEEARAAMLRPSFIPQEVKLSIEGRSNAGK
For B1, the binding was “binds”.
